At least one structure is not confirmed: it was looked up by name or label, or the drawing left a doubt.
Assay: Affinity of bone targeting agents to hydroxyapatite (supernatant LCMS)
Assay type: binding
Details: 0.100 mM test solution in TBS pH 7.40, HA suspension 1.00 or 10.0 mg/ml, 1 hour (FIG. 25)
Description: To determine the affinity of the bone targeting agents to hydroxyapatite, the method described in Willson et al., Biorganic & Medicinal Chemistry Letters, 6(9), 1043-1046 (1996) for determining bone affinity using HPLC retention on a hydroxyapatite column was modified. The affinity of several bone targeting agents was determined using the following method. […] The suspension was diluted to prepare a 1.00 mg/ml HA suspension by stirring on a magnetic stir plate at the slowest speed necessary to create a uniform suspension appropriate for sampling. Each tested compound was dissolved in TBS at a concentration of 0.100 mM. 200 μl of test solution was mixed with 200 μl of TBS, HA at 1.00 mg/ml, or HA at 10.0 mg/ml, and agitated on an orbital shaker at 200 rpm for 1 hour. Each experiment was performed in triplicate. The supernatant solution was analyzed using single ion monitoring (SIM) mass spectral mode on a Shimadzu LCMS-2010 liquid chromatograph-mass spectrometer. The SIM counts in the test compound/TBS solutions were set at 100%. The amount of test compound present in the HA supernatant test solutions was expressed as a percentage of the amount of test compound available with no hydroxyapatite present. Tetracycline was included as a positive control.

For CN(C)[C@@H]1C(O)=C(C(N)=O)C(=O)[C@@]2(O)C(O)=C3C(=O)c4c(O)cccc4[C@@](C)(O)[C@H]3C[C@@H]12 [tetracycline, Tetracycline], the affinity to hydroxyapatite was “has an affinity toward hydroxyapatite”.

— patent US20090011975A1, “TARGETED BONE MARROW PROTECTION AGENTS” (Semafore Pharmaceuticals Inc., priority 2003, published 2009)
